The text below walks through data of patent US20110091467A1 (CENTRE FOR ADDICTION AND MENTAL HEALTH, published 2011).

The chains behind the UniProt entries cited, without tags or fusion partners.
UniProt P23977: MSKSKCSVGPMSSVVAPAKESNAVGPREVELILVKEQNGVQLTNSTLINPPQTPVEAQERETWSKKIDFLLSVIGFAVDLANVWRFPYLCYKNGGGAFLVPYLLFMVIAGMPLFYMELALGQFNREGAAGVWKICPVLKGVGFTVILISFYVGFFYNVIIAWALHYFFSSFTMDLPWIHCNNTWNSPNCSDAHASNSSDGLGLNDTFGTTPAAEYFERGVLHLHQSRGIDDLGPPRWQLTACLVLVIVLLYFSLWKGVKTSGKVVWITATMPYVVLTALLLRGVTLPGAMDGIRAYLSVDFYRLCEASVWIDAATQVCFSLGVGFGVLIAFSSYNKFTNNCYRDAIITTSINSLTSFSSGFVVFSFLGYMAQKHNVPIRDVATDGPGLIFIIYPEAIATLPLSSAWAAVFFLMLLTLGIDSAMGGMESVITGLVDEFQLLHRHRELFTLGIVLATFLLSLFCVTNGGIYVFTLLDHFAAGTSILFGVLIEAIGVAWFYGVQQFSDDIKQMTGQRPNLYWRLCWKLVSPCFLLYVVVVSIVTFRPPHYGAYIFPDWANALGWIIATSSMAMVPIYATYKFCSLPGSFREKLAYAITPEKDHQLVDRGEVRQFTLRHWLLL
UniProt P61169: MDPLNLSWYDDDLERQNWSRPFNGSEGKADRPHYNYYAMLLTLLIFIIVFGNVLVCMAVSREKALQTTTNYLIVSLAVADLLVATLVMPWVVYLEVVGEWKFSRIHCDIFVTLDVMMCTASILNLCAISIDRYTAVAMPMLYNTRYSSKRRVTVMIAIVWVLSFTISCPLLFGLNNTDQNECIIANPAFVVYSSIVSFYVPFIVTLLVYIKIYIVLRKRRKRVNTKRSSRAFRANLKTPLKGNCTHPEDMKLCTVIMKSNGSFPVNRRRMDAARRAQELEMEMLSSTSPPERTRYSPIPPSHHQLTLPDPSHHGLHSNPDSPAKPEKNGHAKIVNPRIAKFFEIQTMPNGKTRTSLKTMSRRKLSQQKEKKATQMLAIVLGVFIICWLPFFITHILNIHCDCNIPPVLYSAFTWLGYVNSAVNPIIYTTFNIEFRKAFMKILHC

Experiment [1] deals with dopamine transporter (DAT) from solubilized rat striatal tissue (rat) (UniProt P23977). Put plainly: co-immunoprecipitation from rat striatal tissue, Western blot.
The target is the same in experiment [2]. Put plainly: co-immunoprecipitation, FIG. 1A.

No constants are given. Whether binding was seen depends on the method and setting. In cells and extracts the contact can be indirect. Some entries that bind do so weakly or less than the wild type.

As to “dopamine D2 receptor from solubilized rat striatal tissue (from UniProt P61169 1-444)”, the binding result in experiment [1] and in experiment [2] was “binds” throughout.
